# These are yes or no findings as the source states them, for the method shown. In cells and extracts the contact can be indirect. Some results given as binding are weak or reduced against the parent protein; the word gives no strength.
# Protein sequences, listed by entry. Tags and fused reporters are not part of them.
# UniProt Q7KZF4: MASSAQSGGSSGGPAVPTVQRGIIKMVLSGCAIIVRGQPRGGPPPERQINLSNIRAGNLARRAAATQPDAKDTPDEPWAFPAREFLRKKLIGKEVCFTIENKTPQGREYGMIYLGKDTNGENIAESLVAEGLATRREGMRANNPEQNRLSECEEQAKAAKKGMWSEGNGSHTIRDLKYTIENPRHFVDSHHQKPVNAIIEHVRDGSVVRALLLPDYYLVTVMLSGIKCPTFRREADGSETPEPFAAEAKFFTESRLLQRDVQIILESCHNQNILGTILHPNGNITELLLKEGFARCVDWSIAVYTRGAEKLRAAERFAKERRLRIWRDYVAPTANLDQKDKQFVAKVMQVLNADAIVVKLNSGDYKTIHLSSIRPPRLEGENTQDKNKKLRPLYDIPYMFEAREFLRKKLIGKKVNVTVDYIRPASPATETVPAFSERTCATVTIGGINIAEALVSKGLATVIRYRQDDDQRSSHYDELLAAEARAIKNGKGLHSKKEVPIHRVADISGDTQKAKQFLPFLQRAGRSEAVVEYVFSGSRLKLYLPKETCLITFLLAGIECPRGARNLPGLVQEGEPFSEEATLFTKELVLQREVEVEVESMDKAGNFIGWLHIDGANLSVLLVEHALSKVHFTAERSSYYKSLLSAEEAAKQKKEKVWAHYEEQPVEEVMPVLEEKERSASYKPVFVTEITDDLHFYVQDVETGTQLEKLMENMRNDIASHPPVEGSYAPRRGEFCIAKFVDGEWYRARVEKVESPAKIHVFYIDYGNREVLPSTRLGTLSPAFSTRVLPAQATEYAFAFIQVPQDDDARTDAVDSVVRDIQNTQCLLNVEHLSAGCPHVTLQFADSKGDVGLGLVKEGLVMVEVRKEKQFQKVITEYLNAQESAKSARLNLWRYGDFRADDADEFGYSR
# Columns and labels:
# [1] = target: SND1 (endogenous, VCaP cells) (human (endogenous in VCaP)) (UniProt Q7KZF4); assay: proximity ligation; Duolink PLA in fixed, permeabilised VCaP cells; anti-ERG together with anti-SND1 or anti-MTDH antibodies; confocal imaging
# [2] = target: SND1 (endogenous, VCaP cells) (human (endogenous in VCaP)) (UniProt Q7KZF4); assay: co-IP; endogenous proteins from VCaP lysate; primary antibodies (anti-SND1, anti-MTDH) and protein A/G beads at 4 °C; IP buffer 50 mM Tris-HCl pH 7.5, 1% Triton X-100, 50 mM NaCl, 0.1 mM EDTA; also after siRNA knockdown of SND1 or MTDH
binder,measurement,setting,value
"ERG (endogenous, VCaP cells) (protein, UniProt P11308 1-479) MASTIKEALSVVSEDQSLFECAYGTPHLAKTEMTASSSSDYGQTSKMSPRVPQQDWLSQPPARVTIKMECNPSQVNGSRNSPDECSVAKGGKMVGSPDTVGMNYGSYMEEKHMPPPNMTTNERRVIVPADPTLWSTDHVRQWLEWAVKEYGLPDVNILLFQNIDGKELCKMTKDDFQRLTPSYNADILLSHLHYLRETPLPHLTSDDVDKALQNSPRLMHARNTGGAAFIFPNTSVYPEATQRITTRPDLPYEPPRRSAWTGHGHPTPQSKAAQPSPSTVPKTEDQRPQLDPYQILGPTSSRLANPGSGQIQLWQFLLELLSDSSNSSCITWEGTNGEFKMTDPDEVARRWGERKSKPNMNYDKLSRALRYYYDKNIMTKVHGKRYAYKFDFHGIAQALQPHPPESSLYKYPSDLPYMGSYHAHPQKMNFVAPHPPALPVTSSSFFAAPNPYWNSPTGGIYPNTRLPTSHMPSHLGTYY",binding,[1],binds
same,binding,[2],binds
